Drawing on patent US20180371054A1, this text covers binding for one molecule.

By UniProt entry, the sequences of proteins in these tests, tags left out. Residues count along the entry.
UniProt P20273, residues 20-687: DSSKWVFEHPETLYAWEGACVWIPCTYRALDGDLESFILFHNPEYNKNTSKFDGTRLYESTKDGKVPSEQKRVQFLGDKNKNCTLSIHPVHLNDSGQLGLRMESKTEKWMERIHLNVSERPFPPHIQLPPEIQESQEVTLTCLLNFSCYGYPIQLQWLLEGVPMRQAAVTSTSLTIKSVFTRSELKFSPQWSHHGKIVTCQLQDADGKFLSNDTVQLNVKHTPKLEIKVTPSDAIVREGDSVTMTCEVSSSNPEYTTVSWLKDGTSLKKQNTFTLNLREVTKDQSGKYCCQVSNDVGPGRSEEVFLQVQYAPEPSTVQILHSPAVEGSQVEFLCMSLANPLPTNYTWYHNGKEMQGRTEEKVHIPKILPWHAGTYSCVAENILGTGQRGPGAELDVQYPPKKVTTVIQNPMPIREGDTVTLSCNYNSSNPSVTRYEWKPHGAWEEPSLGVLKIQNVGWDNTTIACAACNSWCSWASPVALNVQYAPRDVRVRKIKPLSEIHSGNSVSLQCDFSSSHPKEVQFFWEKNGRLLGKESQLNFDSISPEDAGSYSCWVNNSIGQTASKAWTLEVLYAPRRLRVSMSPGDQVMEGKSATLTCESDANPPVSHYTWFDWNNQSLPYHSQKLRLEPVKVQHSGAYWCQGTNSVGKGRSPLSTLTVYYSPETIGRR

In this assay the target is CD22 (human) (UniProt P20273). Description: SPR (Biacore T200), scFv-Fc captured on anti-IgG CM5 chip, antigen injected. On the technique in general: Surface plasmon resonance follows binding to a sensor surface in real time, without labels.

No constants are given. Whether binding was seen depends on the method and setting. Some binding calls cover weakened binding; strength is not graded here.

B1: Humanised CD22ALAb scFv (scFv, not shown: a dimerising Fc or GST)
scFv: EVQLVESGAEVKKPGSSVKVSCKASGYTFTNYWINWVRQAPGQGLEWIGNIYPSDSFTNYNQKFKDRATLTVDKSTSTAYLELRNLRSDDTAVYYCTRDTQERSWYFDVWGQGTLVTVSSDIVMTQSPATLSVSPGERATLSCRSSQSLVHSNGNTYLHWYQQKPGQAPRLLIYKVSNRFSGVPARFSGSGSGVEFTLTISSLQSEDFAVYYCSQSTHVPWTFGQGTRLEIK
Take B1: the binding entry is “binds”.
